{"source": "PubChem BioAssay AID1259254 | NCATS | 2017", "purpose": "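Finding genes that stop cells copying their DNA twice in one cycle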 (primary screen)", "cell system": "human HCT116 colorectal cancer cells", "knock-down reagent": "single siRNA against human genes", "duration": "3 days", "measured": "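Imaged Hoechst DNA stain sorts each cell into a cycle phase by DNA amount; per plate, G2 fraction set to 0% for non-targeting and 100% for GMNN siRNA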", "reading the numbers": "G2 robust z-score: higher = more G2 cells, more excess DNA replication", "call rule": "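An siRNA counts as active if its G2 robust z-score lies at least 5 MADs above the screen median; here such calls match roughly 38% of GMNN control or more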", "note": "Shown is an unselected part of about 59,000 reagents tested. About 1,550 of them (2.6%) were called active. 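G2 share is only a proxy for re-replication; each gene was hit by three separate siRNAs, and active genes were retested.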 Entries without a mark were called inactive. Reagents against one gene are numbered here. Not all columns of the deposit are shown. No sequences are given here. Not given: the amount of reagent."}
{"Target gene": "HTN3 (histatin 3)", "reagent": 1, "G2 robust z-score": 0.362}
{"Target gene": "HTN3 (histatin 3)", "reagent": 2, "G2 robust z-score": -0.727}
{"Target gene": "HTN3 (histatin 3)", "reagent": 3, "G2 robust z-score": -0.46}
{"Target gene": "ZNF829 (zinc finger protein 829)", "reagent": 1, "G2 robust z-score": 1.73}
{"Target gene": "ZNF829 (zinc finger protein 829)", "reagent": 2, "G2 robust z-score": 0.201}
{"Target gene": "ZNF829 (zinc finger protein 829)", "reagent": 3, "G2 robust z-score": 0.445}
{"Target gene": "MEIOB (meiosis specific with OB-fold)", "reagent": 1, "G2 robust z-score": -0.702}
{"Target gene": "MEIOB (meiosis specific with OB-fold)", "reagent": 2, "G2 robust z-score": 2.76}
{"Target gene": "MEIOB (meiosis specific with OB-fold)", "reagent": 3, "G2 robust z-score": -0.785}
{"Target gene": "C3orf49 (chromosome 3 open reading frame 49)", "reagent": 1, "G2 robust z-score": -0.964}
{"Target gene": "C3orf49 (chromosome 3 open reading frame 49)", "reagent": 2, "G2 robust z-score": -0.187}
{"Target gene": "C3orf49 (chromosome 3 open reading frame 49)", "reagent": 3, "G2 robust z-score": 0.631}

Reformatted: 3 of the entries above.
Target gene	reagent	G2 robust z-score
HTN3 (histatin 3)	2	-0.727
HTN3 (histatin 3)	3	-0.46
ZNF829 (zinc finger protein 829)	1	1.73

The listing continues:
{"Target gene": "TAF2 (TATA-box binding protein associated factor 2)", "reagent": 1, "G2 robust z-score": 2.04}
{"Target gene": "TAF2 (TATA-box binding protein associated factor 2)", "reagent": 2, "G2 robust z-score": 2.04}
{"Target gene": "TAF2 (TATA-box binding protein associated factor 2)", "reagent": 3, "G2 robust z-score": 3.03}
{"Target gene": "EWSR1 (EWS RNA binding protein 1)", "reagent": 1, "G2 robust z-score": -0.8}
{"Target gene": "EWSR1 (EWS RNA binding protein 1)", "reagent": 2, "G2 robust z-score": 0.247}
{"Target gene": "EWSR1 (EWS RNA binding protein 1)", "reagent": 3, "G2 robust z-score": 1.32}
{"Target gene": "DLEU1 (deleted in lymphocytic leukemia 1)", "reagent": 1, "G2 robust z-score": 0.41}
{"Target gene": "DLEU1 (deleted in lymphocytic leukemia 1)", "reagent": 2, "G2 robust z-score": -0.22}
{"Target gene": "DLEU1 (deleted in lymphocytic leukemia 1)", "reagent": 3, "G2 robust z-score": 0.349}
{"Target gene": "FERMT2 (FERM domain containing kindlin 2)", "reagent": 1, "G2 robust z-score": 3.09}
{"Target gene": "FERMT2 (FERM domain containing kindlin 2)", "reagent": 2, "G2 robust z-score": 0.0227}
{"Target gene": "FERMT2 (FERM domain containing kindlin 2)", "reagent": 3, "G2 robust z-score": "7.38 (active)"}
